B1: Myc-tagged mouse IL-17RB point mutant Q366D (receptor, UniProt Q9JIP3 18-499, looked up)
chain: REPTIQCGSETGPSPEWMVQHTLTPGDLRDLQVELVKTSVAAEEFSILMNISWILRADASIRLLKATKICVSGKNNMNSYSCVRCNYTEAFQSQTRPSGGKWTFSYVGFPVELSTLYLISAHNIPNANMNEDSPSLSVNFTSPGCLNHVMKYKKQCTEAGSLWDPDITACKKNEKMVEVNFTTNPLGNRYTILIQRDTTLGFSRVLENKLMRTSVAIPVTEESEGAVVQLTPYLHTCGNDCIRREGTVVLCSETSAPIPPDDNRRMLGGWLPLFLVLLVAVWVLAAGIYLTWRQGRSTKTSFPISTMLLPLIKVLVVYPSEICFHHTVCRFTDFLQNYCRSEVILEKWDKKKIAEMGPVQWLTTQKQAADKVVFLLPSDVPTLCDSACGHNEGSARENSQDLFPLAFNLFCSDFSSQTHLHKYLVVYLGGADLKGDYNALSVCPQYHLMKDATAFHTELLKATQSMSVKKRSQACHDSCSPL
B2: Myc-tagged mouse IL-17RB point mutant E409R (receptor, UniProt Q9JIP3 18-499, looked up)
chain: REPTIQCGSETGPSPEWMVQHTLTPGDLRDLQVELVKTSVAAEEFSILMNISWILRADASIRLLKATKICVSGKNNMNSYSCVRCNYTEAFQSQTRPSGGKWTFSYVGFPVELSTLYLISAHNIPNANMNEDSPSLSVNFTSPGCLNHVMKYKKQCTEAGSLWDPDITACKKNEKMVEVNFTTNPLGNRYTILIQRDTTLGFSRVLENKLMRTSVAIPVTEESEGAVVQLTPYLHTCGNDCIRREGTVVLCSETSAPIPPDDNRRMLGGWLPLFLVLLVAVWVLAAGIYLTWRQGRSTKTSFPISTMLLPLIKVLVVYPSEICFHHTVCRFTDFLQNYCRSEVILEKWQKKKIAEMGPVQWLTTQKQAADKVVFLLPSDVPTLCDSACGHNRGSARENSQDLFPLAFNLFCSDFSSQTHLHKYLVVYLGGADLKGDYNALSVCPQYHLMKDATAFHTELLKATQSMSVKKRSQACHDSCSPL
B3: Myc-tagged mouse IL-17RB point mutant S411R (receptor, UniProt Q9JIP3 18-499, looked up)
chain: REPTIQCGSETGPSPEWMVQHTLTPGDLRDLQVELVKTSVAAEEFSILMNISWILRADASIRLLKATKICVSGKNNMNSYSCVRCNYTEAFQSQTRPSGGKWTFSYVGFPVELSTLYLISAHNIPNANMNEDSPSLSVNFTSPGCLNHVMKYKKQCTEAGSLWDPDITACKKNEKMVEVNFTTNPLGNRYTILIQRDTTLGFSRVLENKLMRTSVAIPVTEESEGAVVQLTPYLHTCGNDCIRREGTVVLCSETSAPIPPDDNRRMLGGWLPLFLVLLVAVWVLAAGIYLTWRQGRSTKTSFPISTMLLPLIKVLVVYPSEICFHHTVCRFTDFLQNYCRSEVILEKWQKKKIAEMGPVQWLTTQKQAADKVVFLLPSDVPTLCDSACGHNEGRARENSQDLFPLAFNLFCSDFSSQTHLHKYLVVYLGGADLKGDYNALSVCPQYHLMKDATAFHTELLKATQSMSVKKRSQACHDSCSPL
B4: Myc-tagged mouse IL-17RB point mutant S337A (receptor, UniProt Q9JIP3 18-499, looked up)
chain: REPTIQCGSETGPSPEWMVQHTLTPGDLRDLQVELVKTSVAAEEFSILMNISWILRADASIRLLKATKICVSGKNNMNSYSCVRCNYTEAFQSQTRPSGGKWTFSYVGFPVELSTLYLISAHNIPNANMNEDSPSLSVNFTSPGCLNHVMKYKKQCTEAGSLWDPDITACKKNEKMVEVNFTTNPLGNRYTILIQRDTTLGFSRVLENKLMRTSVAIPVTEESEGAVVQLTPYLHTCGNDCIRREGTVVLCSETSAPIPPDDNRRMLGGWLPLFLVLLVAVWVLAAGIYLTWRQGRSTKTSFPISTMLLPLIKVLVVYPAEICFHHTVCRFTDFLQNYCRSEVILEKWQKKKIAEMGPVQWLTTQKQAADKVVFLLPSDVPTLCDSACGHNEGSARENSQDLFPLAFNLFCSDFSSQTHLHKYLVVYLGGADLKGDYNALSVCPQYHLMKDATAFHTELLKATQSMSVKKRSQACHDSCSPL
B5: Myc-tagged mouse IL-17RB point mutant I339A (receptor, UniProt Q9JIP3 18-499, looked up)
chain: REPTIQCGSETGPSPEWMVQHTLTPGDLRDLQVELVKTSVAAEEFSILMNISWILRADASIRLLKATKICVSGKNNMNSYSCVRCNYTEAFQSQTRPSGGKWTFSYVGFPVELSTLYLISAHNIPNANMNEDSPSLSVNFTSPGCLNHVMKYKKQCTEAGSLWDPDITACKKNEKMVEVNFTTNPLGNRYTILIQRDTTLGFSRVLENKLMRTSVAIPVTEESEGAVVQLTPYLHTCGNDCIRREGTVVLCSETSAPIPPDDNRRMLGGWLPLFLVLLVAVWVLAAGIYLTWRQGRSTKTSFPISTMLLPLIKVLVVYPSEACFHHTVCRFTDFLQNYCRSEVILEKWQKKKIAEMGPVQWLTTQKQAADKVVFLLPSDVPTLCDSACGHNEGSARENSQDLFPLAFNLFCSDFSSQTHLHKYLVVYLGGADLKGDYNALSVCPQYHLMKDATAFHTELLKATQSMSVKKRSQACHDSCSPL
B6: Myc-tagged mouse IL-17RB point mutant E414R (receptor, UniProt Q9JIP3 18-499, looked up)
chain: REPTIQCGSETGPSPEWMVQHTLTPGDLRDLQVELVKTSVAAEEFSILMNISWILRADASIRLLKATKICVSGKNNMNSYSCVRCNYTEAFQSQTRPSGGKWTFSYVGFPVELSTLYLISAHNIPNANMNEDSPSLSVNFTSPGCLNHVMKYKKQCTEAGSLWDPDITACKKNEKMVEVNFTTNPLGNRYTILIQRDTTLGFSRVLENKLMRTSVAIPVTEESEGAVVQLTPYLHTCGNDCIRREGTVVLCSETSAPIPPDDNRRMLGGWLPLFLVLLVAVWVLAAGIYLTWRQGRSTKTSFPISTMLLPLIKVLVVYPSEICFHHTVCRFTDFLQNYCRSEVILEKWQKKKIAEMGPVQWLTTQKQAADKVVFLLPSDVPTLCDSACGHNEGSARRNSQDLFPLAFNLFCSDFSSQTHLHKYLVVYLGGADLKGDYNALSVCPQYHLMKDATAFHTELLKATQSMSVKKRSQACHDSCSPL
B7: Myc-tagged mouse IL-17RB point mutant E338A (receptor, UniProt Q9JIP3 18-499, looked up)
chain: REPTIQCGSETGPSPEWMVQHTLTPGDLRDLQVELVKTSVAAEEFSILMNISWILRADASIRLLKATKICVSGKNNMNSYSCVRCNYTEAFQSQTRPSGGKWTFSYVGFPVELSTLYLISAHNIPNANMNEDSPSLSVNFTSPGCLNHVMKYKKQCTEAGSLWDPDITACKKNEKMVEVNFTTNPLGNRYTILIQRDTTLGFSRVLENKLMRTSVAIPVTEESEGAVVQLTPYLHTCGNDCIRREGTVVLCSETSAPIPPDDNRRMLGGWLPLFLVLLVAVWVLAAGIYLTWRQGRSTKTSFPISTMLLPLIKVLVVYPSAICFHHTVCRFTDFLQNYCRSEVILEKWQKKKIAEMGPVQWLTTQKQAADKVVFLLPSDVPTLCDSACGHNEGSARENSQDLFPLAFNLFCSDFSSQTHLHKYLVVYLGGADLKGDYNALSVCPQYHLMKDATAFHTELLKATQSMSVKKRSQACHDSCSPL
B8: Myc-tagged mouse IL-17RB point mutant W378R (receptor, UniProt Q9JIP3 18-499, looked up)
chain: REPTIQCGSETGPSPEWMVQHTLTPGDLRDLQVELVKTSVAAEEFSILMNISWILRADASIRLLKATKICVSGKNNMNSYSCVRCNYTEAFQSQTRPSGGKWTFSYVGFPVELSTLYLISAHNIPNANMNEDSPSLSVNFTSPGCLNHVMKYKKQCTEAGSLWDPDITACKKNEKMVEVNFTTNPLGNRYTILIQRDTTLGFSRVLENKLMRTSVAIPVTEESEGAVVQLTPYLHTCGNDCIRREGTVVLCSETSAPIPPDDNRRMLGGWLPLFLVLLVAVWVLAAGIYLTWRQGRSTKTSFPISTMLLPLIKVLVVYPSEICFHHTVCRFTDFLQNYCRSEVILEKWQKKKIAEMGPVQRLTTQKQAADKVVFLLPSDVPTLCDSACGHNEGSARENSQDLFPLAFNLFCSDFSSQTHLHKYLVVYLGGADLKGDYNALSVCPQYHLMKDATAFHTELLKATQSMSVKKRSQACHDSCSPL
B9: Myc-tagged mouse IL-17RB point mutant N415D (receptor, UniProt Q9JIP3 18-499, looked up)
chain: REPTIQCGSETGPSPEWMVQHTLTPGDLRDLQVELVKTSVAAEEFSILMNISWILRADASIRLLKATKICVSGKNNMNSYSCVRCNYTEAFQSQTRPSGGKWTFSYVGFPVELSTLYLISAHNIPNANMNEDSPSLSVNFTSPGCLNHVMKYKKQCTEAGSLWDPDITACKKNEKMVEVNFTTNPLGNRYTILIQRDTTLGFSRVLENKLMRTSVAIPVTEESEGAVVQLTPYLHTCGNDCIRREGTVVLCSETSAPIPPDDNRRMLGGWLPLFLVLLVAVWVLAAGIYLTWRQGRSTKTSFPISTMLLPLIKVLVVYPSEICFHHTVCRFTDFLQNYCRSEVILEKWQKKKIAEMGPVQWLTTQKQAADKVVFLLPSDVPTLCDSACGHNEGSAREDSQDLFPLAFNLFCSDFSSQTHLHKYLVVYLGGADLKGDYNALSVCPQYHLMKDATAFHTELLKATQSMSVKKRSQACHDSCSPL
B10: Myc-tagged mouse IL-17RB point mutant G410D (receptor, UniProt Q9JIP3 18-499, looked up)
chain: REPTIQCGSETGPSPEWMVQHTLTPGDLRDLQVELVKTSVAAEEFSILMNISWILRADASIRLLKATKICVSGKNNMNSYSCVRCNYTEAFQSQTRPSGGKWTFSYVGFPVELSTLYLISAHNIPNANMNEDSPSLSVNFTSPGCLNHVMKYKKQCTEAGSLWDPDITACKKNEKMVEVNFTTNPLGNRYTILIQRDTTLGFSRVLENKLMRTSVAIPVTEESEGAVVQLTPYLHTCGNDCIRREGTVVLCSETSAPIPPDDNRRMLGGWLPLFLVLLVAVWVLAAGIYLTWRQGRSTKTSFPISTMLLPLIKVLVVYPSEICFHHTVCRFTDFLQNYCRSEVILEKWQKKKIAEMGPVQWLTTQKQAADKVVFLLPSDVPTLCDSACGHNEDSARENSQDLFPLAFNLFCSDFSSQTHLHKYLVVYLGGADLKGDYNALSVCPQYHLMKDATAFHTELLKATQSMSVKKRSQACHDSCSPL

These are yes or no findings as the source states them, for the method shown. Binding seen in cells or lysates may run through a third protein. Some binding calls cover weakened binding; strength is not graded here. Tags and fused reporters may be left off the sequences shown.

In the test the target is T1, Act1 in IL-17RB-deficient MEFs reconstituted with Myc-tagged IL-17RB (mouse (cells are mouse embryonic fibroblasts)) (UniProt Q8N7N6).
T1 sequence (looked up): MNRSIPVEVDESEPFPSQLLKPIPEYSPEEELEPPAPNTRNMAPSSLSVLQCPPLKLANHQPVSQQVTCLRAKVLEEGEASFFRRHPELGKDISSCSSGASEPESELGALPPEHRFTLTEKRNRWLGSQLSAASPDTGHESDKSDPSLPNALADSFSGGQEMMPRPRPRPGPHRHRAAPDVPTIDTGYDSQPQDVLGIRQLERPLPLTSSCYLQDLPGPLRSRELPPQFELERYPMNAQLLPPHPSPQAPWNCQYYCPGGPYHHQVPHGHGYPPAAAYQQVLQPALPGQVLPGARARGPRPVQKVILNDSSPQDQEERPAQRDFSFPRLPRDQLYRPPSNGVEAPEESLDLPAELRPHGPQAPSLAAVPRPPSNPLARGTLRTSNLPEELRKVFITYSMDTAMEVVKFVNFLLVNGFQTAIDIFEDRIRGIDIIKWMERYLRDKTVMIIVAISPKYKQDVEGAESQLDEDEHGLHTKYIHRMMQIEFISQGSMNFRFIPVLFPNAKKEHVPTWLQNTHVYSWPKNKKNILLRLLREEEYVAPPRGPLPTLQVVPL
Kind of test: co-immunoprecipitation in reconstituted IL-17RB-deficient MEFs (IP anti-Myc).
Take B1: the binding entry is reported as “binds”. As for B2, the entry is “binds”; as for B3, “binds”; as for B4, “binds”.

Regarding B5, the binding entry is “binds”. In the case of B6 it was “binds”. As for B7, the binding entry is “binds”. In the case of B8 it was “binds”; in that of B9, “binds”. As for B10, the entry is “binds”.

These data come from patent publication US20150158912A1.
